PubChem BioAssay AID1159597, NIAID, 2016

Assay: 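Role of canonical TLR signalling genes in the human macrophage LPS response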
Cell system: human THP-1 B5 reporter clone (monocytic leukaemia line), PMA-differentiated to macrophage-like cells
Knock-down reagent: single siRNA against human genes
Time to read-out: LPS for 4 h before read-out; assayed 48 to 72 h after siRNA transfection
Challenge: LPS (Salmonella minnesota R595) for 4 h; concentration not given
Measurement: 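After 4 h LPS, firefly TNF promoter luciferase over renilla, as a plate median/MAD robust z-score averaged across replicates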
Scale: TNF reporter z-score: higher = stronger TNF promoter activity after LPS
Hit rule: In these data the active calls have TNF reporter z-score, replicate mean at about -1.5 or lower, or at about 1.53 or higher
Calls: active = clear shift in reporter, either direction; inactive = little shift in reporter
This is a random part of 756 reagents tested. 140 of all reagents (19%) count as active. 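Calls mark clear shifts in either direction, lowered or raised; calls are per siRNA, gene-level medians over six siRNAs not deposited.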 Entries without a mark were called inactive. Reagents against one gene are numbered here. The record does not give: the amount of reagent.

gene | reagent | TNF reporter z-score, replicate mean
PIK3R1 (phosphoinositide-3-kinase regulatory subunit 1) | 1 | 0.573
PIK3R1 (phosphoinositide-3-kinase regulatory subunit 1) | 2 | -0.067
PIK3R1 (phosphoinositide-3-kinase regulatory subunit 1) | 3 | 0.778
PIK3R1 (phosphoinositide-3-kinase regulatory subunit 1) | 4 | -0.611
PIK3R1 (phosphoinositide-3-kinase regulatory subunit 1) | 5 | -1.9 (active)
PIK3R1 (phosphoinositide-3-kinase regulatory subunit 1) | 6 | 1.21
UBE2N (ubiquitin conjugating enzyme E2 N) | 1 | 0.447
UBE2N (ubiquitin conjugating enzyme E2 N) | 2 | -1.49
UBE2N (ubiquitin conjugating enzyme E2 N) | 3 | 1.28
UBE2N (ubiquitin conjugating enzyme E2 N) | 4 | -0.783
UBE2N (ubiquitin conjugating enzyme E2 N) | 5 | -0.159
UBE2N (ubiquitin conjugating enzyme E2 N) | 6 | 1
MAP2K2 (mitogen-activated protein kinase kinase 2) | 1 | -0.225
MAP2K2 (mitogen-activated protein kinase kinase 2) | 2 | 0.749
MAP2K2 (mitogen-activated protein kinase kinase 2) | 3 | -0.119
MAP2K2 (mitogen-activated protein kinase kinase 2) | 4 | 0.145
MAP2K2 (mitogen-activated protein kinase kinase 2) | 5 | -0.087
MAP2K2 (mitogen-activated protein kinase kinase 2) | 6 | 0.0219
TNF (tumor necrosis factor) | 1 | -0.518
TNF (tumor necrosis factor) | 2 | -0.585
TNF (tumor necrosis factor) | 3 | -0.658
TNF (tumor necrosis factor) | 4 | -0.336
TNF (tumor necrosis factor) | 5 | -1.01
TNF (tumor necrosis factor) | 6 | -0.277
TICAM2 (TIR domain containing adaptor molecule 2) | 1 | -1.42
TICAM2 (TIR domain containing adaptor molecule 2) | 2 | -1.41
TICAM2 (TIR domain containing adaptor molecule 2) | 3 | -1.33
TICAM2 (TIR domain containing adaptor molecule 2) | 4 | 0.943
TICAM2 (TIR domain containing adaptor molecule 2) | 5 | -1.69 (active)
TICAM2 (TIR domain containing adaptor molecule 2) | 6 | -0.919
CXCL11 (C-X-C motif chemokine ligand 11) | 1 | -2.75 (active)
CXCL11 (C-X-C motif chemokine ligand 11) | 2 | -0.026
CXCL11 (C-X-C motif chemokine ligand 11) | 3 | 0.265
CXCL11 (C-X-C motif chemokine ligand 11) | 4 | -0.46
CXCL11 (C-X-C motif chemokine ligand 11) | 5 | -1.55 (active)
CXCL11 (C-X-C motif chemokine ligand 11) | 6 | -0.39
MAP3K7 (mitogen-activated protein kinase kinase kinase 7) | 1 | -1.58 (active)
MAP3K7 (mitogen-activated protein kinase kinase kinase 7) | 2 | -2.99 (active)
MAP3K7 (mitogen-activated protein kinase kinase kinase 7) | 3 | -2.84 (active)
MAP3K7 (mitogen-activated protein kinase kinase kinase 7) | 4 | -1.53 (active)
MAP3K7 (mitogen-activated protein kinase kinase kinase 7) | 5 | -2.02 (active)
MAP3K7 (mitogen-activated protein kinase kinase kinase 7) | 6 | -1.3
TLR9 (toll like receptor 9) | 1 | -0.985
TLR9 (toll like receptor 9) | 2 | 0.0261
TLR9 (toll like receptor 9) | 3 | -3.32 (active)
TLR9 (toll like receptor 9) | 4 | 0.94
TLR9 (toll like receptor 9) | 5 | -0.0951
TLR9 (toll like receptor 9) | 6 | 0.0565
CASP8 (caspase 8) | 1 | -0.498
CASP8 (caspase 8) | 2 | -0.274
CASP8 (caspase 8) | 3 | -0.149
CASP8 (caspase 8) | 4 | -0.322
CASP8 (caspase 8) | 5 | 0.246
CASP8 (caspase 8) | 6 | -1.39
TNFAIP3 (TNF alpha induced protein 3) | 1 | -2.78 (active)
TNFAIP3 (TNF alpha induced protein 3) | 2 | -0.511
TNFAIP3 (TNF alpha induced protein 3) | 3 | -2.32 (active)
TNFAIP3 (TNF alpha induced protein 3) | 4 | -0.162
TNFAIP3 (TNF alpha induced protein 3) | 5 | 1.2
TNFAIP3 (TNF alpha induced protein 3) | 6 | -1.14

Continued; the last 13 above are carried over.
gene | reagent | TNF reporter z-score, replicate mean
TLR9 (toll like receptor 9) | 6 | 0.0565
CASP8 (caspase 8) | 1 | -0.498
CASP8 (caspase 8) | 2 | -0.274
CASP8 (caspase 8) | 3 | -0.149
CASP8 (caspase 8) | 4 | -0.322
CASP8 (caspase 8) | 5 | 0.246
CASP8 (caspase 8) | 6 | -1.39
TNFAIP3 (TNF alpha induced protein 3) | 1 | -2.78 (active)
TNFAIP3 (TNF alpha induced protein 3) | 2 | -0.511
TNFAIP3 (TNF alpha induced protein 3) | 3 | -2.32 (active)
TNFAIP3 (TNF alpha induced protein 3) | 4 | -0.162
TNFAIP3 (TNF alpha induced protein 3) | 5 | 1.2
TNFAIP3 (TNF alpha induced protein 3) | 6 | -1.14
DUSP1 (dual specificity phosphatase 1) | 1 | 0.422
DUSP1 (dual specificity phosphatase 1) | 2 | 0.682
DUSP1 (dual specificity phosphatase 1) | 3 | 1.53 (active)
DUSP1 (dual specificity phosphatase 1) | 4 | 0.816
DUSP1 (dual specificity phosphatase 1) | 5 | 0.207
DUSP1 (dual specificity phosphatase 1) | 6 | 0.466
IKBKB (inhibitor of nuclear factor kappa B kinase subunit beta) | 1 | 0.0815
IKBKB (inhibitor of nuclear factor kappa B kinase subunit beta) | 2 | 0.997
IKBKB (inhibitor of nuclear factor kappa B kinase subunit beta) | 3 | 0.612
IKBKB (inhibitor of nuclear factor kappa B kinase subunit beta) | 4 | -0.307
IKBKB (inhibitor of nuclear factor kappa B kinase subunit beta) | 5 | 0.523
IKBKB (inhibitor of nuclear factor kappa B kinase subunit beta) | 6 | 0.328
ATF7 (activating transcription factor 7) | 1 | -2.38 (active)
ATF7 (activating transcription factor 7) | 2 | -0.151
ATF7 (activating transcription factor 7) | 3 | -1.62 (active)
ATF7 (activating transcription factor 7) | 4 | -1.05
ATF7 (activating transcription factor 7) | 5 | -0.356
ATF7 (activating transcription factor 7) | 6 | 0.485
MAPK9 (mitogen-activated protein kinase 9) | 1 | -0.701
MAPK9 (mitogen-activated protein kinase 9) | 2 | -1.82 (active)
MAPK9 (mitogen-activated protein kinase 9) | 3 | 0.651
MAPK9 (mitogen-activated protein kinase 9) | 4 | 0.505
MAPK9 (mitogen-activated protein kinase 9) | 5 | -0.751
MAPK9 (mitogen-activated protein kinase 9) | 6 | 0.702
MAPK13 (mitogen-activated protein kinase 13) | 1 | -1.27
MAPK13 (mitogen-activated protein kinase 13) | 2 | -0.65
MAPK13 (mitogen-activated protein kinase 13) | 3 | -0.84
MAPK13 (mitogen-activated protein kinase 13) | 4 | -2.05 (active)
MAPK13 (mitogen-activated protein kinase 13) | 5 | -0.527
MAPK13 (mitogen-activated protein kinase 13) | 6 | 0.0182
OTUD5 (OTU deubiquitinase 5) | 1 | 0.384
OTUD5 (OTU deubiquitinase 5) | 2 | -1.92 (active)
OTUD5 (OTU deubiquitinase 5) | 3 | -1.2
OTUD5 (OTU deubiquitinase 5) | 4 | -0.842
OTUD5 (OTU deubiquitinase 5) | 5 | -1.81 (active)
OTUD5 (OTU deubiquitinase 5) | 6 | -0.817
IL12B (interleukin 12B) | 1 | -0.0331
IL12B (interleukin 12B) | 2 | -0.664
IL12B (interleukin 12B) | 3 | -1.25
IL12B (interleukin 12B) | 4 | -1.9 (active)
IL12B (interleukin 12B) | 5 | -0.137
IL12B (interleukin 12B) | 6 | -0.935
MAPK11 (mitogen-activated protein kinase 11) | 1 | -0.781
MAPK11 (mitogen-activated protein kinase 11) | 2 | 0.221
MAPK11 (mitogen-activated protein kinase 11) | 3 | -0.258
MAPK11 (mitogen-activated protein kinase 11) | 4 | -0.42
MAPK11 (mitogen-activated protein kinase 11) | 5 | -1.01
MAPK11 (mitogen-activated protein kinase 11) | 6 | -0.125
PTPN6 (protein tyrosine phosphatase non-receptor type 6) | 1 | -1.37
PTPN6 (protein tyrosine phosphatase non-receptor type 6) | 2 | 0.942
PTPN6 (protein tyrosine phosphatase non-receptor type 6) | 3 | -0.431
PTPN6 (protein tyrosine phosphatase non-receptor type 6) | 4 | -1.52 (active)
PTPN6 (protein tyrosine phosphatase non-receptor type 6) | 5 | -1.45
PTPN6 (protein tyrosine phosphatase non-receptor type 6) | 6 | -0.301
